Test results as given in US11220682B2 (SOGANG UNIVERSITY RESEARCH & BUSINESS DEVELOPMENT FOUNDATION, priority 2017, dated 2022).
Some of these results come from one statement about several compounds together.

Test system: emGFP-E90DOPA
Assay: MALDI-TOF MS analysis of tryptic digest of emGFP-E90DOPA, specificity of incorporation
Type: cell-based, E. coli
Details: mutant protein expressed by 2 mM L-DOPA, position 90
Source text: A wild-type emGFP gene was obtained from commercially available sources by gene synthesis, amplified by PCR, and inserted between the BspHI and KpnI sites of pBAD/Myc-His (Invitrogen) to generate pBAD-emGFP (SEQ ID NO: 10). An amber codon (TAG) was incorporated at position 39 or 90 in the emGFP by site-specific mutants. A plasmid containing each amber codon was incorporated into E. coli DH10 used as a prokaryote host cell with pEvol-DOPA-RS1 (SEQ ID NO: 6), pEvol-DOPA-RS2 (SEQ ID NO: 7), or pEvol-DOPA-RS (SEQ ID NO: 8) to co-transform the E. coli DH10 (Comparative Example 1: […], Example 1: DOPA-RS1, Example 2: DOPA-RS2). Cells were amplified in an LB medium (lysogeny broth) supplemented with ampicillin (100 μg/mL) and chloramphenicol (35 μg/mL). […] Protein expression was induced by adding 0.2% L-arabinose when the optical density reached 0.8, and the culture was cultured overnight at 37° C. […] Protein concentrations were calculated by measuring absorbance at 280 nm and using the calculated extinction coefficient (2.2×10^4 cm^−1M^−1 for emGFP). […]
In order to express an emGFP-E90DOPA mutant, the expressed protein was purified, followed by tryptic degradation and then evaluated by MALDI-TOF (matrix-assisted laser desorption/ionization-time of flight) MS analysis (FIG. 2). […]

| Molecule | incorporation of L-DOPA |
| --- | --- |
| DOPA-RS2 (protein, Artificial DOPA_RS-2 Sequence) MDEFEMIKRNTSEIISEEELREVLEKDEKSALIGFEPSGKIHLGHYLQIKKMIDLQNAGFDIIILLSDLNAYLNQKGELDEIRKIGDYNKKVFEAMGLKAKYVYGSEFQLDKDYTLNVYRLALKTTLKRARRSMELIAREDENPKVAEVIYPIMQVNDIHYLGVDVLVGGMEQRKIHMLARELLPKKVVCIHNPVLTGLDGEGKMSSSKGNFIAVDDSPEEIRAKIKKAYCPAGVVEGNPIMEIAKYFLEYPLTIKRPEKFGGDLTVNSYEELESLFKNKELHPMDLKNAVAEELIKILEPIRKRL | > 90% |
| DOPA-RS1 (protein, Artificial DOPA_RS-1 Sequence) MDEFEMIKRNTSEIISEEELREVLEKDEKSALIGFEPSGKIHLGHYLQIKKMIDLQNAGFDIIILLSDLNAYLNQKGELDEIRKIGDYNKKVFEAMGLKAKYVYGSEFQLDKDYTLNVYRLALKTTLKRARRSMELIAREDENPKVAEVIYPIMQVNDIHYLGVDVNVGGMEQRKIHMLARELLPKKVVCIHNPVLTGLDGEGKMSSSKGNFIAVDDSPEEIRAKIKKAYCPAGVVEGNPIMEIAKYFLEYPLTIKRPEKFGGDLTVNSYEELESLFKNKELHPMDLKNAVAEELIKILEPIRKRL | > 90% |
